Measured values reported in publication PMC7838639.
Results are given in words; binding and its absence hold for the method and conditions named. Binding seen in cells or lysates may run through a third protein. Some entries that bind do so weakly or less than the wild type.

Target: FLAG-TFE3 (pcDNA3.1-TFE3-N-FLAG) (mouse) (UniProt Q64092)
Assay: co-IP; lysates of COS-7 cells expressing FLAG-TFE3 and MYC-HDAC5 (full length and deletion mutants); IP with anti-FLAG M2 agarose 2 h at 4 °C, blot with anti-MYC; lysis buffer 50 mM potassium phosphate, 150 mM sodium chloride, 0.5% Triton X-100, pH 7.4

binding: binds
Substance: MYC-HDAC5, full length (pcDNA3.1-HDAC5-MYC) (from UniProt Q9UQL6 1-1122) (enzyme)
